Results are given in words; binding and its absence hold for the method and conditions named. A result given as binding can be weak or reduced; the word gives no strength.
Molecular target: LexA hybrid containing the TPR domain of Ssn6 (yeast)
Assay: two-hybrid; library screen: LexA hybrid with the TPR domain of Ssn6 as bait against a Gal4p activation domain yeast genomic library

B1: Ssn6 Δ29 (amino acids 30 to 180) (domain or fragment, yeast, UniProt P14922 30-180, looked up)
chain: QAAVPQQPLDPLTQSTAETWLSIASLAETLGDGDRAAMAYDATLQFNPSSAKALTSLAHLYRSRDMFQRAAELYERALLVNPELSDVWATLGHCYLMLDDLQRAYNAYQQALYHLSNPNVPKLWHGIGILYDRYGSLDYAEEAFAKVLELD
notes: Ssn6 (also known as Cyc8), yeast, amino acids 30 to 180; lacks residues 1-29 of the NTpolyQ tail and contains three intact TPRs; also called Ssn6 Δ29-Gal4; LexA-Ssn6 Δ29; source: yeast two-hybrid fusion (clone isolated from a Gal4pAD yeast genomic library, pACTII)
  binding: binds

Source: paper PMC5650148, “Ssn6-Tup1 global transcriptional co-repressor: Role of the N-terminal glutamine-rich region of Ssn6” (PLoS ONE, 2017)
